# Reference: PubChem BioAssay AID504834 (National Center for Advancing Translational Sciences (NCATS), 2011)
# About 22,000 (6.9%) of roughly 320,000 compounds were called active. This list was built around the results that the source calls inconclusive (neither active nor inactive); the mix of calls is not that of the screen. The call rests on the fitted dose curve; in most records, active means well fitted inhibition curve with a large enough effect; inconclusive means small, poorly fitted or top-dose-only effect, or another doubt; inactive means no such curve, though single readings can be large or run the other way. Where the call is inconclusive, the potency comes from a doubtful curve fit.
# Assay: Primary qHTS for delayed death inhibitors of the malarial parasite plastid, 96 hour incubation
# Details: P. falciparum luciferase reporter growth; series mostly up to 28.7 µM; activity change, negative = inhibition: at the top concentration
# How it was run: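 Luminescence readout: decreased luciferase signal marks inhibited growth of reporter-expressing P. falciparum in infected red cells (2% hematocrit, 0.05% parasitemia final), exposed to compound two generations (96 h, 37 C, 5% CO2).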
# On the % scale 0 is the no-effect control and ±100 the full control effect; potency means the concentration at half of the fitted maximal effect.
Compound,"activity change, negative = inhibition",Potency
O=C(NCc1ccc(/C=N\NC(=O)C(=O)Nc2ccccc2Br)o1)C(=O)Nc1ccccc1,inactive: -16.3%,–
COc1cc(/C=N/Nc2ncc(C(F)(F)F)cc2Cl)cc(OC)c1OC,–,"inconclusive: 2.33 µM [inhibitor, full curve, poor fit]"
N/C(=N\OC(=O)c1ccc(Br)cc1)c1cccc([N+](=O)[O-])c1,–,"inconclusive: 18.5 µM [inhibitor, single point]"
CC(=O)NC(CC(=O)N(Cc1ccccc1)c1cccc(C)c1)c1ccccc1 (stereo not given),–,"inconclusive: 8.28 µM [inhibitor, partial curve, poor fit]"
Cc1cc(OCC(=O)NNC(=O)CCc2ccccc2)ccc1Br,–,"inconclusive: 7.38 µM [inhibitor, partial curve, poor fit]"
CN1CCC(NC(=O)c2cccs2)CC1,inactive: -23.3%,–
Cc1cc(C)cc(N2CC(C)Cn3c2nc2c3c(=O)[nH]c(=O)n2C)c1 (stereo not given),inactive: 8.91%,–
COc1ccc(C(=O)OCC(=O)c2ccc(Br)s2)c(OC)c1,inactive: 49.1%,–
CCOC(=O)C1(C)C=C(Nc2ccc(O)cc2)C(=O)N1c1ccc(O)cc1 (stereo not given),–,active: 10.4 µM
COc1ccc(NC(=S)Nc2cccc(Cl)c2)cc1OC,–,"inconclusive: 1.65 µM [inhibitor, partial curve, poor fit]"
COc1ccccc1N(CC(O)CN(c1ccccc1)S(C)(=O)=O)S(=O)(=O)c1ccccc1 (stereo not given),inactive: 27.5%,–
CC1(C)CC(=O)C(C2(O)C(=O)Nc3ccccc32)CO1 (stereo not given),–,"inconclusive: 9.28 µM [inhibitor, partial curve]"
Cc1ccc2oc(C(=O)N3CCN(Cc4ncccc4C)CC3)c(C)c2c1,–,"inconclusive: 18.5 µM [inhibitor, single point]"
O=S(=O)(c1cccc2nsnc12)N1CCN(Cc2ccccc2)CC1,–,"inconclusive: 13.1 µM [inhibitor, partial curve]"
CCOc1cc(/C=N/O)ccc1OCc1ccc(F)cc1,–,active: 3.7 µM
CCOC(=O)C/C(C)=N/NC(=O)Nc1ccccc1,inactive: -29.7%,–
CCC(=O)Nc1cc2[nH]c(=O)cc(C)c2cc1C,–,"inconclusive: 0.0033 µM [inhibitor, full curve, poor fit]"
CCN1CNC(=S)N(c2cccc(C)c2C)C1,–,"inconclusive: 1.17 µM [inhibitor, single point]"
Cc1ccc(C(=O)NC2CCS(=O)(=O)C2)cc1S(=O)(=O)N1CCCCCC1 (stereo not given),inactive: -6.88%,–
CCOc1ccc(CNC(=O)CN2C(=O)CSc3ccc(S(=O)(=O)N4CCOCC4)cc32)cc1OC,–,"inconclusive: 4.15 µM [inhibitor, partial curve]"
O=C(Nc1ccccc1)/C(=C/c1ccc(F)cc1)NC(=O)c1ccco1,inactive: 2.63%,–
Cc1ccccc1CS(=O)(=O)Cc1ccc(C(=O)NCc2cccnc2)o1,–,"inconclusive: 1.17 µM [inhibitor, full curve]"
Cc1ccc(C(=O)N/C(=C\c2ccccc2)C(=O)NCC2CCCO2)cc1 (stereo not given),–,"inconclusive: 10.4 µM [inhibitor, single point]"

Compound,"activity change, negative = inhibition",Potency
Cc1cc2oc(C(=O)N(Cc3ccc(N(C)C)cc3)CC3CCCO3)c(C)c2cc1C (stereo not given),–,"inconclusive: 18.5 µM [inhibitor, single point]"
CCN(Cc1ccccc1)C(=O)CCc1nc(CN2CCN(C(=O)c3ccc([N+](=O)[O-])cc3)CC2)no1,–,"inconclusive: 18.5 µM [inhibitor, single point]"
Cc1noc(C)c1CSCC(=O)Nc1nc2ccccc2s1,–,"inconclusive: 14.7 µM [inhibitor, single point]"
COc1ccc(-c2cnnn2-c2ccc(NC(=O)c3ccc(S(=O)(=O)N4CCCCC4)cc3)cc2)cc1OC,–,active: 1.47 µM
Cc1cc(Nc2ccc(Br)c(C)c2)n2nc(C)nc2n1,–,active: 10.4 µM
COc1cc2cnc(-c3ccccc3)c(-c3ccc(C(F)(F)F)cc3)c2cc1OC,–,"inconclusive: 9.28 µM [inhibitor, partial curve]"
O=C(NCCCN1CCCC1=O)c1ccc2c(c1)OCO2,–,"inconclusive: 18.5 µM [inhibitor, single point]"
CCCCC(=O)N/N=C/c1c(O)n(Cc2ccc(F)cc2)c(=O)[nH]c1=O,inactive: -5.8%,–
O=C(/C=C/c1ccc(OC(F)F)cc1)OCC(=O)N1CCN(C(=O)c2ccco2)CC1,inactive: 16.8%,–
COc1ccc(NC(=O)CCCN2C(=O)CN(C)C2=O)c(OC)c1,–,"inconclusive: 11.7 µM [inhibitor, single point]"
CCOC(=O)/C=C/C(=O)Nc1ccc(S(=O)(=O)N2CCc3ccccc32)cc1,–,"inconclusive: 13.1 µM [inhibitor, single point]"
CCC(=O)N1CCc2cc(Br)cc(S(=O)(=O)N3CCCCC3CC)c21 (stereo not given),–,"inconclusive: 11.7 µM [inhibitor, partial curve]"
Nc1nonc1-n1nnc(C(=O)N/N=C\c2ccncc2)c1CN1CCCCC1,inactive: 79%,–
CC(NC(=O)COC(=O)c1cc([N+](=O)[O-])ccc1N1CCOCC1)c1ccccc1 (stereo not given),–,"inconclusive: 18.5 µM [inhibitor, single point]"
COc1cc2cc(CCOC(=O)CCCC(=O)O)oc(=O)c2cc1OC,–,"inconclusive: 18.5 µM [inhibitor, single point]"
O=C(CN(Cc1ccccc1)C(=O)CCC(=O)Nc1nccs1)NCc1ccc(F)cc1,inactive: -7.41%,–
O=C(CCc1ccccc1)NCC1(c2ccccc2)CCCC1,–,"inconclusive: 18.5 µM [inhibitor, single point]"
Cc1ccc(-c2c(C(=O)N/N=C/c3ccc(C)o3)nnn2-c2nonc2N)cc1,–,active: 2.33 µM
C/C(=C\C(=O)c1ccc(F)cc1)NCc1ccc2c(c1)OCO2,–,"inconclusive: 6.57 µM [inhibitor, partial curve, poor fit]"
CC1(CCBr)C(=O)N(c2ccccc2)c2ccccc21 (stereo not given),–,active: 13.1 µM
O=C(c1cccc(Cl)c1)C1CCCN(C(=O)c2ccc3c(c2)OCO3)C1 (stereo not given),–,"inconclusive: 8.28 µM [inhibitor, partial curve, poor fit]"
O=C(CCCNS(=O)(=O)c1cccc2nsnc12)NCCN1CCN(c2ccccc2F)CC1,–,"inconclusive: 20.8 µM [inhibitor, partial curve, poor fit]"

# Four structures from above, arranged by molecular weight, rising:
Compound,"activity change, negative = inhibition",Potency
O=C(CCc1ccccc1)NCC1(c2ccccc2)CCCC1,–,"inconclusive: 18.5 µM [inhibitor, single point]"
O=C(c1cccc(Cl)c1)C1CCCN(C(=O)c2ccc3c(c2)OCO3)C1 (stereo not given),–,"inconclusive: 8.28 µM [inhibitor, partial curve, poor fit]"
Cc1cc2oc(C(=O)N(Cc3ccc(N(C)C)cc3)CC3CCCO3)c(C)c2cc1C (stereo not given),–,"inconclusive: 18.5 µM [inhibitor, single point]"
CCC(=O)N1CCc2cc(Br)cc(S(=O)(=O)N3CCCCC3CC)c21 (stereo not given),–,"inconclusive: 11.7 µM [inhibitor, partial curve]"
